This note sets out measurements from ChEMBL document CHEMBL4673388, “Enhancing Antimicrobial Peptide Potency through Multivalent Presentation on Coiled-Coil Nanofibrils” (ACS Med Chem Lett, 2021).

The MIC is the lowest concentration that inhibits growth of the organism.

In this assay the test system is Escherichia coli. In words: Antibacterial activity against Escherichia coli ATCC 25922 assessed as inhibition of bacterial growth incubated for 16 to 20 hrs by microdilution method. Format: functional. The note with it: time 16-20 hrs. For orientation: In broth dilution the organism is exposed to a series of concentrations in liquid medium.

Converted amounts (≈) assume the structure as drawn.

In the case of `CC1(C)S[C@@H]2[C@H](NC(=O)[C@H](N)c3ccccc3)C(=O)N2[C@H]1C(=O)O` [AMPICILLIN], the MIC was 11.4 µM (≈ 3.98 µg/mL).
